The results in this text go back to US20100233096A1, “METHOD TO PRODUCE HYPERPOLARISED CARBOXYLATES AND SULPHONATES” (priority 2006, published 2010).

Each structure is given as a SMILES string. Read-outs that look alike come from different tables or passages of the source.

Data set [1] in a line: Liquid state polarisation of 13C nuclei by liquid state 13C-NMR after DNP and dissolution.

`O=[13C]([O-])O.[Cs+]` [caesium ^13C-bicarbonate]: the “solid state polarisation of the 13C nuclei” value is 70 integral/mmol ^13C (Example 7: 10 mM trityl radical, glycerol/water, no Gd-chelate, DNP 1.2 K, 3.35 T, 93.890 GHz, 3 hours) and 390 integral/mmol ^13C (Example 8: as Example 7 plus 0.7 mM Gd-chelate of Example 4 (2.1 mM Gd3+)). For the same compound, the “liquid state polarisation of the 13C nuclei” value (from here on “liquid state polarisation”) in data set [1] (Example 9: 12 mM trityl radical, 0.2 mM Gd-chelate (0.6 mM Gd3+), glycerol/water, DNP 1.2 K, 3.35 T, 93.890 GHz, 3 hours, dissolved to 10 mM, 400 MHz) is on record as 18%.
For the compound `CC(=O)[13C](=O)[O-].[Cs+]` [caesium pyruvate, Caesium ^13C1-pyruvate], the “liquid state polarisation” value in data set [1] (Example 3: 7 molar aqueous solution, 14.5 mM trityl radical, no Gd-chelate, DNP 1.2 K, 3.35 T, 93.950 GHz, 2 hours, dissolved in 7 ml water with 100 mg/l EDTA, 13C-NMR at 400 MHz) amounted to 15%; in data set [1] (Example 5: about 14 mM trityl radical and 0.7 mM Gd-chelate of Example 4 (2.1 mM Gd3+), DNP 1.2 K, 3.35 T, 2 hours, dissolved in 7 ml water with 100 mg/l EDTA, 400 MHz), 24%.
Take `CC(=O)[13C](=O)[O-].[Na+]` [sodium pyruvate, Sodium ^13C1-pyruvate]: the “liquid state polarisation” value in data set [1] (Example 6: DNP and dissolution as Example 5 (trityl radical + Gd-chelate), then sodium charged ion exchange column, about 4-5 s, 400 MHz) was 17%.
